The assay can be described thus: qHTS Assay for Lipid Storage Modulators in Drosophila S3 Cells.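 For cell number change: cells counted by Cell Tracker Red CMTPX staining in the red channel.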 Conditions: BODIPY lipid droplet fluorescence, 18-24 h; for cell number change: measured here: cell count max response, cells fed with added oleic acid. In a few lines: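 Drosophila S3 cells got compounds at several concentrations plus oleic acid (400 uM solution). Laser-scanning cytometry with 488 nm excitation read lipid droplets at 500-530 nm and cells at 575-640 nm. Percent activity was relative to 20 uM Triacsin C.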

The mark [1] stands for this setting: measured here: cell number channel AC50, cells fed with added oleic acid.
Setting [2] is: measured here: lipid fluorescence (Fed channel) AC50, cells fed with added oleic acid.

The structures appear in SMILES notation. The list shows a part of the results. These are further read-outs of the screen, such as a control signal, another cell line or another target. No call is given for them. The list favours compounds with an active or inconclusive main result. The note in brackets gives the kind of curve behind each potency; many fits are weak.

A word on the AC50: it is the midpoint of the concentration-response curve, whichever way the signal moves. Regarding `N=C1SCC(=O)N1c1ccccc1Cl`, the cell number change was determined as 23.6%. In addition, the AC50 under setting [1] was 0.206 µM [rising, full curve, poor fit]. Further, under setting [2], the AC50 is 29.1 µM [falling, single point]. `COc1ccc(-c2cc3ccccc3n2CC(O)CN2CCOCC2)cc1` (centres undefined): the cell number change turned out to be 6.26%. Also, the AC50 under setting [2] was 23.1 µM [rising, single point]. As for `CCCCn1c(C)cc2c(c1=O)C1O[C@](c3ccc(OC)cc3)(Cc3cc(OC)c(OC)cc31)O2`, the cell number change amounted to 8.44%. With `COC(=O)C1=NN(c2cccc(C)c2)C2C(=O)N(c3ccccc3OC)C(=O)C12` (centres undefined), the cell number change was -47.6%. Further, the AC50 under setting [1] is 32.6 µM [falling, partial curve, poor fit]. Moreover, the AC50 under setting [2] was 4.61 µM [falling, full curve]. For the compound `CC(C)C1=CC(=Nc2ccc(S(N)(=O)=O)cc2)C=C(C(C)C)C1=O`, the cell number change is -30.2%. Besides, the AC50 under setting [1] was 11.6 µM [falling, single point]. In the case of `Cc1c(Cl)cccc1N=C1SCCN1C(=O)CN1C(=O)NC2(CCCC2)C1=O`, the cell number change was 107%. Also, the AC50 under setting [1] was 16.4 µM [rising, single point].

As to `COc1ccc(-c2nc(CS(=O)(=O)CC(=O)NCCc3ccccc3)c(C)o2)cc1`, the cell number change was -17.1%. Under setting [2], the AC50 is 6.51 µM [falling, single point].

Turning to `CC(=O)C(Sc1ncnc2c1nnn2-c1ccc(F)cc1)C(=O)N(C)C` (centres undefined), the AC50 by setting is: under setting [1], 0.259 µM [falling, full curve, poor fit]; under setting [2], 6.51 µM [falling, single point]. With `O=C(O)c1ccc(NCc2ccncc2)cc1`, the cell number change was -45.8%. Moreover, the AC50 under setting [1] was 9.2 µM [falling, single point]. On to `[O-][n+]1c2ccccc2cc2ccccc21`, for which the cell number change is -31.5%. The AC50 under setting [1] was 9.2 µM [falling, single point]. Also, the AC50 under setting [2] is 0.103 µM [falling, full curve, poor fit]. With `CS(=O)(=O)c1cccc(C(=O)OCC(=O)Nc2ccc3c(c2)OCO3)c1`, the cell number change was -8.84%. Under setting [2], the AC50 is 0.82 µM [falling, full curve, poor fit]. For the compound `Cc1ccc(S(=O)(=O)N2CCCC2CNC(=O)C(=O)Nc2ccc(F)cc2)cc1` (centres undefined), the cell number change came out at 81.1%. Moreover, the AC50 under setting [1] was 11.6 µM [rising, partial curve].

Regarding `Cc1cccc([N+](=O)[O-])c1C(=O)O`, the cell number change came out at 7.96%. Further, the AC50 under setting [2] was 29.1 µM [rising, partial curve, poor fit].

On to `Clc1ccc(-c2nnc(CSc3nnc(-c4cccs4)n3Cc3ccccc3)o2)cc1`, for which the cell number change is -0.219%. With `CN(C)c1cccc(O)c1`, the cell number change was -5.05%. Take `COC(=O)c1ccc(NC(=O)CN(c2ccc3c(c2)OCO3)S(C)(=O)=O)cc1`: the AC50 under setting [1] is 0.82 µM [rising, partial curve]. With `CCc1ccc(-c2cc(C)no2)cc1S(=O)(=O)N1CCN(c2ccc(C(C)=O)cc2)CC1`, the cell number change was -19.2%. Also, the AC50 under setting [2] is 29.1 µM [falling, single point].

Turning to `Cc1nn(C)c(Nc2ccc(Br)cc2)c1Br`, the cell number change was -25.4%. Take `COc1ccc(/C(O)=C/C(=O)C(=O)NNC(=O)c2ccccc2)cc1`: the AC50 under setting [2] was 0.116 µM [rising, full curve, poor fit]. With `COC(=O)C(C)Oc1ccc(-c2nccc(-c3ccccn3)n2)cc1` (centres undefined), the cell number change stood at 11.8%. The half-maximal activity concentration (AC50) under setting [2] was 2.91 µM [rising, full curve, poor fit]. Regarding `NC(=O)Cn1cc(/C=N\NS(=O)(=O)c2ccc(Cl)cc2)c2ccccc21`, the cell number change amounted to 30.1%. For `CCCCc1nc2ccccc2n1Cc1nnc2n1-c1ccccc1SC2`, the cell number change turned out to be 8.62%. The AC50 under setting [1] was 0.184 µM [rising, full curve]. The AC50 under setting [2] was 0.184 µM [rising, full curve]. Take `CC(=O)Nc1ccc(C(=O)OCC(=O)N2CCCC2)cc1`: the cell number change was determined as 20.7%. Moreover, under setting [2], the concentration at half-maximal activity (AC50) is 7.31 µM [rising, partial curve]. With `CC1CC(C)(C)NC(=S)N1CC(=O)NCc1ccccc1Cl` (centres undefined), the cell number change was -8.03%. The AC50 under setting [2] is 9.2 µM [falling, partial curve, poor fit].

In the case of `COc1ccc(CNC(=O)C(C)c2ccc([N+](=O)[O-])cc2)cc1` (centres undefined), the cell number change was -9.18%. As to `c1coc(C2Nc3ccccc3-c3nc4ccccc4n32)c1` (centres undefined), the cell number change worked out at 12.8%. The AC50 under setting [1] is 0.461 µM [rising, full curve, poor fit]. Also, under setting [2], the AC50 was 0.92 µM [rising, partial curve]. As for `COc1cc(/C=C/C(=O)OCC(=O)Nc2c(C)n(C)n(-c3ccccc3)c2=O)cc(OC)c1OC`, the cell number change was found to be 30.4%. Moreover, the AC50 under setting [1] was 29.1 µM [rising, single point]. Moreover, the AC50 under setting [2] was 18.4 µM [falling, single point]. Turning to `Cn1c(=O)c([N+](=O)[O-])c(-n2ccnc2)c2ccccc21`, the cell number change is -71.4%. In addition, under setting [1], the AC50 is 4.61 µM [falling, full curve]. Under setting [2], the AC50 was 4.61 µM [falling, full curve]. Regarding `COc1cc(OC)cc(C(=O)NC2CC3CCC(C2)N3Cc2ccco2)c1` (centres undefined), the cell number change was -0.17%. Further, the AC50 under setting [1] was 3.26 µM [falling, single point].

Turning to `CCOC(=O)C(C)n1cnc2scc(-c3ccc(C)cc3)c2c1=O` (centres undefined), the cell number change is -20.9%. For the same compound, the AC50 under setting [2] was 29.1 µM [falling, single point]. Consider `Cc1onc(C(=O)N2CCN(c3ccccc3F)CC2)c1-c1ccccc1Cl`, for which the cell number change worked out at 22.6%. Further, the AC50 under setting [1] was 0.00651 µM [rising, full curve, poor fit]. For the same compound, the AC50 under setting [2] is 0.58 µM [rising, full curve].

In the case of `CC(=O)c1ccc(S(=O)(=O)N2CCN(S(=O)(=O)c3ccccc3C(F)(F)F)CC2)cc1`, the cell number change is 20.7%. Moreover, the AC50 under setting [2] was 23.1 µM [rising, single point]. For `O=C(CN1CCCCC1)Nc1scc2c1c(=O)oc1ccccc12`, the cell number change was -4.36%. In addition, the AC50 under setting [2] is 0.0411 µM [rising, partial curve, poor fit]. For the compound `COc1cc(NC(=S)NC2CC(C)(C)NC(C)(C)C2)c(OC)cc1Cl`, the cell number change stood at 1.81%. As to `NC(=O)NCCCC(=O)OCC(=O)c1ccc2ccccc2c1`, the cell number change is -8.95%. Besides, the AC50 under setting [2] was 2.91 µM [rising, single point]. As for `N#CC1=C(Nc2ccccc2)SC=C(c2ccc(F)cc2)N=C1N1CCOCC1`, the cell number change came out at 6.42%. In addition, under setting [2], the AC50 was 0.00651 µM [falling, full curve, poor fit].

As to `COc1cccc(Nc2nc(-c3sc(NC(=O)c4ccco4)nc3C)cs2)c1`, the cell number change is -39.9%. The AC50 under setting [1] was 29.1 µM [falling, single point]. Also, the AC50 under setting [2] was 23.1 µM [falling, partial curve, poor fit]. Turning to `COc1ccc(Cl)cc1N(C(=O)c1ccco1)C(C(=O)NC1CCCC1)c1ccncc1` (centres undefined), the cell number change is 2.56%. Under setting [2], the half-maximal activity concentration (AC50) is 5.17 µM [falling, single point]. As to `O=C(Cc1csc(N2CCOCC2)n1)N/N=C/c1ccc(Cl)cc1Cl`, the AC50 is, setting by setting: under setting [1], 0.651 µM [rising, single point]; under setting [2], 23.1 µM [rising, partial curve].

Consider `CCN(CC)CCN(C(=O)c1c(F)cccc1F)c1nc2cc(C)cc(C)c2s1`, for which the cell number change was -38.3%. Besides, the AC50 under setting [1] was 29.1 µM [falling, single point]. Moreover, the AC50 under setting [2] is 23.1 µM [falling, single point]. Take `COc1cc2c(cc1NC(=O)CN1CCN(S(=O)(=O)c3ccccc3F)CC1)oc1ccccc12`: the cell number change was 14.3%. In addition, the AC50 under setting [2] was 29.1 µM [falling, single point].

As for `CC1=C/C(=N\N=C2\NC(=O)C(CC(=O)Nc3ccccc3)S2)CC(C)(C)C1` (centres undefined), the cell number change was -2.76%. Still for that read-out and setting: for `COc1ccccc1C(=O)NNC(=O)Cc1ccccc1` the value was 7.62%.

Consider `Cc1ccc(NC(=O)C/C(N)=N/OC(=O)Nc2cccc(Cl)c2)cc1`, for which the cell number change is -2.59%. In addition, under setting [2], the AC50 was 0.00517 µM [falling, full curve, poor fit]. For the compound `COc1cc(/C=C2/SC(=O)N(Cc3ccccc3)C2=O)ccc1OCc1ccncc1`, the cell number change came out at 33.5%. Moreover, under setting [1], the AC50 was 2.91 µM [rising, full curve]. Besides, under setting [2], the AC50 is 11.6 µM [rising, partial curve]. With `CCO/C=C1\C(=O)N(c2ccc(OCC)cc2)C(=O)c2ccccc21`, the cell number change was -2.84%. `CCCc1cc(=O)n2[nH]c(-c3cc(OC)c(OC)c(OC)c3)nc2n1`: under setting [1], the AC50 is 6.51 µM [falling, single point]. As for `CCOc1ccc(CNC(=O)CCCn2ccc3cc(S(=O)(=O)N4CCCC4)ccc32)cc1`, under setting [2], the AC50 is 29.1 µM [falling, single point].

Take `O=C1C(=O)N(CCS(=O)(=O)c2ccccc2)c2ccccc21`: the AC50 under setting [1] was 0.651 µM [falling, single point].

For `CCN1C(=O)[C@H]2[C@@H](c3ccc(OC)cc3)N3C(=O)CN(CCOC)C(=O)[C@@]3(Cc3ccccc3)[C@H]2C1=O`, the cell number change stood at 27.5%. Also, the AC50 under setting [2] is 29.1 µM [rising, single point]. For `COc1ccc2c(c1)OC[C@H]1[C@H]2N2C(=O)c3cc(OC)ccc3NC(=O)[C@@]2(C)[C@H]1c1ccccc1`, the cell number change was -5.08%. Further, the AC50 under setting [1] is 0.82 µM [falling, single point]. Also, the AC50 under setting [2] was 0.82 µM [falling, full curve, poor fit]. With `O=C(COC(=O)c1cccc(NS(=O)(=O)c2ccc(F)c(F)c2)c1)NC(=O)NC1CCCCC1`, the cell number change was -66.7%. For the same compound, the AC50 under setting [1] was 18.4 µM [falling, partial curve, poor fit].

Take `O=C(NCc1ccc2c(c1)OCO2)c1nn(-c2ccccc2)c(=O)c2ccccc12`: the cell number change was determined as 18.5%. The AC50 under setting [1] was 0.184 µM [rising, full curve]. In addition, the half-maximal activity concentration (AC50) under setting [2] was 0.13 µM [rising, full curve, poor fit]. As for `O=C(N/N=C/C=C/c1ccccc1)c1cc(C2CC2)[nH]n1`, the cell number change came to 6.25%.

Turning to `COc1ccc(/C=C2\CCCc3c2nc2ccc(C)cc2c3C(=O)O)cc1O`, the cell number change amounted to 24%. Also, the AC50 under setting [1] was 0.13 µM [falling, full curve, poor fit]. On to `COc1cccc(/C=N/NC(=O)c2cnccn2)c1O`, for which the cell number change is -14.6%. Regarding `CCNc1nc(CC)nc2c1oc1ccccc12`, the cell number change is 11.3%. Take `CCN(c1ccc(C)c(C)c1)S(=O)(=O)c1c(C)[nH]c(=O)[nH]c1=O`: the cell number change is -10.4%. Also, under setting [2], the AC50 is 0.259 µM [falling, full curve, poor fit].

For the compound `CCCCNC(=S)N1CCC(Cc2ccccc2)CC1`, the cell number change was 43.3%. In addition, the AC50 under setting [1] was 4.61 µM [rising, full curve]. In addition, the AC50 under setting [2] was 4.11 µM [rising, partial curve, poor fit].

These data come from PubChem BioAssay AID2685 (National Center for Advancing Translational Sciences (NCATS), 2010).
